14 molecules from the odorant receptor screen of Mainland et al. (2015) can be followed below.

Some test systems named below: OR8G5 clone 1493; OR8H1 clone 1388; OR8H3 P137S clone 1215; OR8I2 clone 1213; OR8J1 Y120C clone 1500; OR8J3 clone 1149; OR8K1 clone 1431; OR8K3 L122R clone 1195; OR8K5 clone 1150.
Common to all, as to test: odorant receptor activation (CRE luciferase / Renilla) (fold of no-odor wells); higher = more activation
Common to all, as to conditions: 100 µM

In test [1] the test system is OR8H2 A105V/I154M/V158L/Y169C/D170Y/Y259H/V284M clone 1214.

Structures are written as SMILES. Where “and” joins values, the source holds several entries; their conditions need not be identical. Identical values can stand only once. Some of the results follow. Single wells; the ratio to wells without odorant was worked out here, and repeats agree poorly.

For `O=CCc1ccccc1` [phenyl acetaldehyde], the odorant receptor activation with OR8G5 clone 1493 was 0.947; in the test on OR8H1 clone 1388 it was 1.63; in [1] it was 1.26; with OR8H3 P137S clone 1215, 1.47; in the test with OR8I2 clone 1213, 1.04; in the test with OR8J1 Y120C clone 1500, 1.09. Further, the odorant receptor activation in the test with OR8J3 clone 1149 was found to be 1.92; in the test with OR8K1 clone 1431 it was 1.4; in the test on OR8K3 L122R clone 1195, 0.986; in the test with OR8K5 clone 1150 it was 1.08.
`CC(=O)OCC=C(C)CCC=C(C)C` [geranyl acetate]: the odorant receptor activation was 1.14 and 1.37 in the test with OR8G5 clone 1493; 0.903 in the test with OR8H1 clone 1388; 0.96 in test [1]; 0.911 in the test on OR8H3 P137S clone 1215; 1.33 in the test with OR8I2 clone 1213; 0.78 and 1.04 with OR8J1 Y120C clone 1500. Further, the odorant receptor activation in the test with OR8J3 clone 1149 was 0.962; in the test with OR8K1 clone 1431, 1; in the test on OR8K3 L122R clone 1195, 0.826; with OR8K5 clone 1150, 1.32.
Regarding `CCCCCCCC=CC=O` [2-decenal], the odorant receptor activation was 1.83 with OR8G5 clone 1493; 2.7 in the test with OR8H1 clone 1388; 0.691 in test [1]; 0.736 with OR8H3 P137S clone 1215; 0.918 with OR8I2 clone 1213; 2.03 in the test with OR8J1 Y120C clone 1500. Besides, the odorant receptor activation in the test on OR8J3 clone 1149 came out at 1.09; in the test on OR8K1 clone 1431, 0.78; in the test on OR8K3 L122R clone 1195, 0.744; in the test on OR8K5 clone 1150, 1.21.
Take `C=CC(C)(O)CCC=C(C)C` (stereo not given) [linalool]: the odorant receptor activation with OR8G5 clone 1493 was 0.918; in the test on OR8H1 clone 1388 it was 0.893; in test [1], 1.23; with OR8H3 P137S clone 1215 it was 1.05; in the test on OR8I2 clone 1213 it was 1.33; with OR8J1 Y120C clone 1500 it was 1.05. Moreover, the odorant receptor activation with OR8J3 clone 1149 is 1.25; in the test on OR8K1 clone 1431 it was 0.961; in the test on OR8K3 L122R clone 1195, 1.1; in the test with OR8K5 clone 1150 it was 0.995.
For the molecule `CCCCCCCCOC(C)=O` [octyl acetate], the odorant receptor activation is 1.19 in the test with OR8G5 clone 1493; 1.08 in the test on OR8H1 clone 1388; 1.2 in test [1]; 1.26 in the test on OR8H3 P137S clone 1215; 1.27 with OR8I2 clone 1213; 0.873 with OR8J1 Y120C clone 1500. Further, the odorant receptor activation came to 1.06 with OR8J3 clone 1149, 1.11 in the test with OR8K1 clone 1431, 1.12 with OR8K3 L122R clone 1195 and 1.08 in the test on OR8K5 clone 1150.
In the case of `CC1COCc2cc3c(cc21)C(C)(C)C(C)C3(C)C` (stereo not given) [galaxolide], the odorant receptor activation is 3.85 with OR8H1 clone 1388; 0.952 in test [1]; 0.836 in the test on OR8H3 P137S clone 1215; 3.6 in the test with OR8I2 clone 1213; 6.91 and 3.85 in the test on OR8J1 Y120C clone 1500; 0.932 in the test on OR8J3 clone 1149. The figures for the odorant receptor activation in the test with OR8K1 clone 1431, in the test with OR8K3 L122R clone 1195 and with OR8K5 clone 1150 were 3.29, 0.764 and 3.58, respectively.
As for `CC1CCC(C(C)C)C(O)C1` (single isomer, unassigned; (-)) [(-)-menthol], the odorant receptor activation is 3.54 in the test with OR8G5 clone 1493; 1.4 in the test with OR8H1 clone 1388; 0.875 in test [1]; 0.941 with OR8H3 P137S clone 1215; 0.949 in the test on OR8I2 clone 1213; 3.7 in the test with OR8J1 Y120C clone 1500. In addition, the odorant receptor activation in the test with OR8J3 clone 1149 was found to be 1.17; in the test with OR8K1 clone 1431, 0.883; with OR8K3 L122R clone 1195, 2.17; in the test on OR8K5 clone 1150 it was 1.12.
For the molecule `CC1=NC(C)SC1C` (stereo not given), the odorant receptor activation is 1.14 and 0.922 with OR8G5 clone 1493; 1.48 with OR8H1 clone 1388; 1 in test [1]; 1.06 in the test with OR8H3 P137S clone 1215; 1.15 in the test on OR8I2 clone 1213; 1.18 and 1.06 with OR8J1 Y120C clone 1500. Further, the odorant receptor activation was 0.887 in the test with OR8J3 clone 1149, 1.22 in the test on OR8K1 clone 1431, 0.96 in the test on OR8K3 L122R clone 1195 and 0.799 in the test on OR8K5 clone 1150.
Consider `CCCCCCC=O` [heptaldehyde], for which the odorant receptor activation in the test with OR8H1 clone 1388 was 1.45 and 0.532; in test [1], 0.487 and 1.16; in the test with OR8H3 P137S clone 1215 it was 0.433 and 0.88; with OR8J3 clone 1149, 0.376 and 0.899; in the test with OR8K1 clone 1431, 1.39 and 0.845; in the test with OR8K5 clone 1150, 0.427 and 1.11.
Consider `CC(C)C=O` [isobutyraldehyde], for which the odorant receptor activation in the test with OR8G5 clone 1493 was 1.28 and 1.52; with OR8H1 clone 1388, 0.77; in test [1], 1.03; in the test on OR8H3 P137S clone 1215, 0.991; in the test with OR8I2 clone 1213, 1.34; with OR8J1 Y120C clone 1500 it was 0.968 and 0.955. Besides, the odorant receptor activation was found to be 0.959 in the test with OR8J3 clone 1149, 0.964 with OR8K1 clone 1431, 0.909 with OR8K3 L122R clone 1195 and 1.11 in the test on OR8K5 clone 1150.
As for `CC(=O)OC1CC2CCC1(C)C2(C)C` (stereo not given) [isobornyl acetate], the odorant receptor activation is 0.938 and 1.2 with OR8G5 clone 1493; 0.798 in the test on OR8H1 clone 1388; 1.07 in [1]; 0.817 with OR8H3 P137S clone 1215; 1.25 in the test with OR8I2 clone 1213; 0.883 and 0.96 with OR8J1 Y120C clone 1500. Also, the odorant receptor activation in the test with OR8J3 clone 1149 was 0.952; in the test on OR8K1 clone 1431, 1.15; with OR8K3 L122R clone 1195, 1.08; with OR8K5 clone 1150 it was 0.832.
In the case of `CCCCCOC(C)=O` [n-amyl acetate], the odorant receptor activation was 1.16 and 0.817 in the test with OR8G5 clone 1493; 1.11 in the test with OR8H1 clone 1388; 0.597 in test [1]; 0.798 in the test on OR8H3 P137S clone 1215; 0.438 in the test on OR8I2 clone 1213; 1.17 and 0.875 in the test with OR8J1 Y120C clone 1500. The odorant receptor activation in the test on OR8J3 clone 1149 turned out to be 0.839; in the test on OR8K1 clone 1431, 0.927; in the test on OR8K3 L122R clone 1195, 0.673; in the test with OR8K5 clone 1150, 0.675.
For the molecule `CC1=CCC(C(C)(C)O)CC1` (stereo not given) [terpineol], the odorant receptor activation with OR8G5 clone 1493 was 0.721; in the test with OR8H1 clone 1388 it was 1.02; in test [1] it was 0.94; in the test on OR8H3 P137S clone 1215, 1.21; in the test with OR8I2 clone 1213, 1.27; in the test with OR8J1 Y120C clone 1500, 0.833. Also, the odorant receptor activation with OR8J3 clone 1149 is 1.32; with OR8K1 clone 1431, 0.994; with OR8K3 L122R clone 1195, 0.878; in the test on OR8K5 clone 1150 it was 1.31.
Consider `O=C1CCCCC1` [Cyclohexanone], for which the odorant receptor activation in the test with OR8G5 clone 1493 was 1.08 and 0.811; with OR8H1 clone 1388 it was 1.25; in test [1], 0.982; with OR8H3 P137S clone 1215 it was 0.771; with OR8I2 clone 1213, 0.89; in the test with OR8J1 Y120C clone 1500, 1.12 and 0.98. The odorant receptor activation was determined as 0.711 in the test with OR8J3 clone 1149, 0.731 in the test with OR8K1 clone 1431, 0.796 in the test on OR8K3 L122R clone 1195 and 0.528 in the test with OR8K5 clone 1150.
